From article PMC11589570, “Critical assessment of LC3/GABARAP ligands used for degrader development and ligandability of LC3/GABARAP binding pockets” (Nature Communications, 2024)
Where “and” joins values, the source holds several entries; their conditions need not be identical. Equal values may be shown once. This continues a long series; more values of the same kind are listed elsewhere.

Tested on: RPE1 cells
Experiment: Cell growth assay (IncuCyte confluence over 72 h)
Format: cell-based
Conditions: listed as 10O5
How it was run: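 Phase confluence (% area covered by cells) imaged every 2 h for 72 h after compound addition; cells in DMEM/10% FBS, seeded 24 h before treatment. Controls were 0.1% DMSO, 250 nM Torin1 and 200 ng/mL Bafilomycin (final). Each point averages three wells.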

Structure (SMILES): O=C1Nc2ccc(I)cc2C1=Cc1cc(Br)c(O)c(Br)c1 [compound 4]
- RPE1 cell growth (100 nM, 12 h): 31 and 19 and 23
- RPE1 cell growth (100 nM, 14 h): 31 and 19 and 26
- RPE1 cell growth (100 nM, 16 h): 34 and 20 and 27
- RPE1 cell growth (100 nM, 18 h): 37 and 21 and 27
- RPE1 cell growth (100 nM, 20 h): 39 and 23 and 29
- RPE1 cell growth (100 nM, 22 h): 42 and 24 and 31
- RPE1 cell growth (100 nM, 24 h): 43 and 26 and 33
- RPE1 cell growth (100 nM, 26 h): 49 and 28 and 35
- RPE1 cell growth (100 nM, 28 h): 53 and 31 and 37
- RPE1 cell growth (100 nM, 32 h): 62 and 38 and 41
- RPE1 cell growth (100 nM, 34 h): 65 and 39 and 48
- RPE1 cell growth (100 nM, 36 h): 67 and 44 and 48
- RPE1 cell growth (100 nM, 38 h): 72 and 49 and 51
- RPE1 cell growth (100 nM, 44 h): 86 and 61
- RPE1 cell growth (100 nM, 46 h): 88 and 62 and 64
- RPE1 cell growth (100 nM, 48 h): 92 and 64 and 72
- RPE1 cell growth (100 nM, 50 h): 94 and 68 and 72
- RPE1 cell growth (100 nM, 54 h): 97 and 80 and 83
- RPE1 cell growth (100 nM, 58 h): 99 and 87 and 88
- RPE1 cell growth (100 nM, 60 h): 99 and 91 and 89
- RPE1 cell growth (100 nM, 62 h): 99 and 90 and 93
- RPE1 cell growth (100 nM, 64 h): 100 and 94
- RPE1 cell growth (100 nM, 66 h): 100 and 97 and 96
- RPE1 cell growth (100 nM, 68 h): 100 and 99 and 98
- RPE1 cell growth (100 nM, 70 h): 100 and 98 and 99
- RPE1 cell growth (100 nM, 72 h): 100 and 99
- RPE1 cell growth (500 nM, 12 h): 38 and 25 and 23
- RPE1 cell growth (500 nM, 14 h): 40 and 24
- RPE1 cell growth (500 nM, 16 h): 42 and 26
- RPE1 cell growth (500 nM, 18 h): 44 and 28 and 27
- RPE1 cell growth (500 nM, 20 h): 45 and 29 and 28
- RPE1 cell growth (500 nM, 22 h): 46 and 35 and 30
- RPE1 cell growth (500 nM, 24 h): 51 and 34 and 33
- RPE1 cell growth (500 nM, 26 h): 55 and 36 and 35
- RPE1 cell growth (500 nM, 28 h): 60 and 41 and 37
- RPE1 cell growth (500 nM, 32 h): 67 and 46 and 43
- RPE1 cell growth (500 nM, 34 h): 71 and 48
- RPE1 cell growth (500 nM, 36 h): 74 and 53 and 50
- RPE1 cell growth (500 nM, 38 h): 78 and 55 and 52
- RPE1 cell growth (500 nM, 44 h): 88 and 68 and 64
- RPE1 cell growth (500 nM, 46 h): 90 and 71 and 68
- RPE1 cell growth (500 nM, 48 h): 92 and 76 and 74
- RPE1 cell growth (500 nM, 50 h): 95 and 78 and 76
- RPE1 cell growth (500 nM, 54 h): 97 and 85
- RPE1 cell growth (500 nM, 58 h): 98 and 91
- RPE1 cell growth (500 nM, 60 h): 99 and 94 and 92
- RPE1 cell growth (500 nM, 62 h): 99 and 95
- RPE1 cell growth (500 nM, 64 h): 99 and 97 and 96
- RPE1 cell growth (500 nM, 66 h): 100 and 98
- RPE1 cell growth (500 nM, 68 h): 99 and 98
- RPE1 cell growth (500 nM, 70 h): 100 and 99
- RPE1 cell growth (500 nM, 72 h): 100 and 99
- RPE1 cell growth (1 uM, 12 h): 28 and 23
- RPE1 cell growth (1 uM, 14 h): 25 and 30 and 24
- RPE1 cell growth (1 uM, 16 h): 26 and 32 and 27
- RPE1 cell growth (1 uM, 18 h): 28 and 34
- RPE1 cell growth (1 uM, 20 h): 30 and 33
- RPE1 cell growth (1 uM, 22 h): 30 and 38 and 33
- RPE1 cell growth (1 uM, 24 h): 33 and 42 and 36
- RPE1 cell growth (1 uM, 26 h): 35 and 42 and 37
- RPE1 cell growth (1 uM, 28 h): 35 and 46 and 39
- RPE1 cell growth (1 uM, 32 h): 43 and 53 and 48
- RPE1 cell growth (1 uM, 34 h): 45 and 57 and 48
- RPE1 cell growth (1 uM, 36 h): 50 and 58 and 53
- RPE1 cell growth (1 uM, 38 h): 53 and 65 and 55
- RPE1 cell growth (1 uM, 42 h): 60 and 71 and 61
- RPE1 cell growth (1 uM, 44 h): 63 and 78 and 69
- RPE1 cell growth (1 uM, 46 h): 68 and 79 and 70
- RPE1 cell growth (1 uM, 48 h): 73 and 85
- RPE1 cell growth (1 uM, 50 h): 75 and 88 and 77
- RPE1 cell growth (1 uM, 54 h): 83 and 93 and 85
- RPE1 cell growth (1 uM, 58 h): 89 and 97 and 90
- RPE1 cell growth (1 uM, 60 h): 91 and 98 and 92
- RPE1 cell growth (1 uM, 62 h): 92 and 99 and 95
- RPE1 cell growth (1 uM, 64 h): 96 and 99
- RPE1 cell growth (1 uM, 66 h): 97 and 100
- RPE1 cell growth (1 uM, 68 h): 99 and 100 and 98
- RPE1 cell growth (1 uM, 70 h): 99 and 100
- RPE1 cell growth (1 uM, 72 h): 100 and 99
- RPE1 cell growth (3 uM, 14 h): 32 and 25 and 24
- RPE1 cell growth (3 uM, 16 h): 34 and 28 and 25
- RPE1 cell growth (3 uM, 18 h): 35 and 29 and 26
- RPE1 cell growth (3 uM, 20 h): 35 and 30 and 28
- RPE1 cell growth (3 uM, 22 h): 40 and 34 and 31
- RPE1 cell growth (3 uM, 24 h): 42 and 36 and 32
- RPE1 cell growth (3 uM, 26 h): 45 and 41 and 35
- RPE1 cell growth (3 uM, 28 h): 49 and 39 and 36
- RPE1 cell growth (3 uM, 32 h): 56 and 47 and 44
- RPE1 cell growth (3 uM, 34 h): 59 and 49 and 46
- RPE1 cell growth (3 uM, 36 h): 62 and 51 and 50
- RPE1 cell growth (3 uM, 38 h): 66 and 56 and 52
- RPE1 cell growth (3 uM, 42 h): 73 and 60 and 58
- RPE1 cell growth (3 uM, 44 h): 76 and 68 and 62
- RPE1 cell growth (3 uM, 46 h): 80 and 70 and 66
- RPE1 cell growth (3 uM, 48 h): 84 and 73 and 70
- RPE1 cell growth (3 uM, 50 h): 87 and 77 and 73
- RPE1 cell growth (3 uM, 54 h): 90 and 85 and 81
- RPE1 cell growth (3 uM, 56 h): 93 and 88 and 84
- RPE1 cell growth (3 uM, 58 h): 94 and 90 and 87
- RPE1 cell growth (3 uM, 60 h): 95 and 93 and 89
- RPE1 cell growth (3 uM, 62 h): 97 and 94 and 91
- RPE1 cell growth (3 uM, 64 h): 97 and 94
- RPE1 cell growth (3 uM, 66 h): 98 and 95
- RPE1 cell growth (3 uM, 68 h): 98 and 99 and 96
- RPE1 cell growth (3 uM, 70 h): 99 and 98
- RPE1 cell growth (3 uM, 72 h): 99 and 100
- RPE1 cell growth (5 uM, 12 h): 32 and 21 and 25
- RPE1 cell growth (5 uM, 14 h): 35 and 21 and 27
- RPE1 cell growth (5 uM, 16 h): 37 and 23 and 28
- RPE1 cell growth (5 uM, 18 h): 37 and 23 and 29
- RPE1 cell growth (5 uM, 20 h): 38 and 25 and 32
- RPE1 cell growth (5 uM, 22 h): 39 and 29 and 33
- RPE1 cell growth (5 uM, 24 h): 44 and 30 and 35
- RPE1 cell growth (5 uM, 26 h): 47 and 32 and 37
- RPE1 cell growth (5 uM, 28 h): 50 and 33 and 39
- RPE1 cell growth (5 uM, 30 h): 54 and 36 and 42
- RPE1 cell growth (5 uM, 32 h): 55 and 40 and 45
- RPE1 cell growth (5 uM, 34 h): 61 and 40 and 48
- RPE1 cell growth (5 uM, 36 h): 64 and 44 and 51
- RPE1 cell growth (5 uM, 38 h): 67 and 47 and 54
- RPE1 cell growth (5 uM, 40 h): 47 and 51 and 57
- RPE1 cell growth (5 uM, 42 h): 72 and 52 and 60
- RPE1 cell growth (5 uM, 44 h): 78 and 57 and 64
- RPE1 cell growth (5 uM, 46 h): 80 and 60 and 67
- RPE1 cell growth (5 uM, 48 h): 84 and 65 and 71
- RPE1 cell growth (5 uM, 50 h): 87 and 68 and 73
- RPE1 cell growth (5 uM, 52 h): 89 and 76
- RPE1 cell growth (5 uM, 54 h): 92 and 76 and 81
- RPE1 cell growth (5 uM, 56 h): 93 and 78 and 83
- RPE1 cell growth (5 uM, 58 h): 95 and 82 and 87
- RPE1 cell growth (5 uM, 60 h): 97 and 87 and 89
- RPE1 cell growth (5 uM, 62 h): 98 and 89 and 92
- RPE1 cell growth (5 uM, 64 h): 98 and 92 and 93
- RPE1 cell growth (5 uM, 66 h): 99 and 94 and 95
- RPE1 cell growth (5 uM, 68 h): 99 and 96
- RPE1 cell growth (5 uM, 70 h): 100 and 97
- RPE1 cell growth (5 uM, 72 h): 100 and 98
- RPE1 cell growth (10 uM, 12 h): 35 and 30 and 26
- RPE1 cell growth (10 uM, 14 h): 39 and 30 and 28
- RPE1 cell growth (10 uM, 16 h): 39 and 34 and 29
- RPE1 cell growth (10 uM, 18 h): 41 and 33 and 31
- RPE1 cell growth (10 uM, 20 h): 42 and 36 and 33
- RPE1 cell growth (10 uM, 22 h): 43 and 38 and 35
- RPE1 cell growth (10 uM, 24 h): 49 and 41 and 35
- RPE1 cell growth (10 uM, 26 h): 52 and 41 and 38
- RPE1 cell growth (10 uM, 28 h): 52 and 44 and 39
- RPE1 cell growth (10 uM, 30 h): 56 and 47 and 42
- RPE1 cell growth (10 uM, 32 h): 58 and 50 and 44
- RPE1 cell growth (10 uM, 34 h): 60 and 51 and 47
- RPE1 cell growth (10 uM, 36 h): 63 and 55 and 49
- RPE1 cell growth (10 uM, 38 h): 65 and 57 and 51
- RPE1 cell growth (10 uM, 40 h): 50 and 61 and 53
- RPE1 cell growth (10 uM, 42 h): 71 and 61 and 56
- RPE1 cell growth (10 uM, 44 h): 74 and 65 and 59
- RPE1 cell growth (10 uM, 46 h): 76 and 68 and 61
- RPE1 cell growth (10 uM, 48 h): 80 and 73 and 64
- RPE1 cell growth (10 uM, 50 h): 83 and 75 and 65
- RPE1 cell growth (10 uM, 52 h): 84 and 79 and 67
- RPE1 cell growth (10 uM, 54 h): 87 and 80 and 70
- RPE1 cell growth (10 uM, 56 h): 88 and 84 and 72
- RPE1 cell growth (10 uM, 58 h): 91 and 86 and 75
- RPE1 cell growth (10 uM, 60 h): 92 and 89 and 77
- RPE1 cell growth (10 uM, 62 h): 94 and 90 and 79
- RPE1 cell growth (10 uM, 64 h): 95 and 92 and 82
- RPE1 cell growth (10 uM, 66 h): 97 and 93 and 83
- RPE1 cell growth (10 uM, 68 h): 97 and 95 and 85
- RPE1 cell growth (10 uM, 70 h): 98 and 96 and 87
- RPE1 cell growth (10 uM, 72 h): 99 and 97 and 88
